Measured values taken from publication PMC10883933.
These are yes or no findings as the source states them, for the method shown. Binding seen in cells or lysates may run through a third protein. Some entries that bind do so weakly or less than the wild type. For some assays here: Tags and fused reporters may be left off the sequences shown.

Legend:
[1] = molecular target: ZNF598 (co-transfected as GFP-ZNF598 and ZNF598-FLAG) (UniProt Q86UK7); assay: co-IP; cells co-transfected with GFP-ZNF598 and ZNF598-FLAG; immunoprecipitation and Western blot (Fig. 6b)
[2] = molecular target: T1, ZNF598 (co-IP of Fig. S6b) (UniProt Q86UK7); assay: co-IP; co-IP of CNOT4 and ZNF598 (Fig. S6b); bait and tags not given
T1 sequence: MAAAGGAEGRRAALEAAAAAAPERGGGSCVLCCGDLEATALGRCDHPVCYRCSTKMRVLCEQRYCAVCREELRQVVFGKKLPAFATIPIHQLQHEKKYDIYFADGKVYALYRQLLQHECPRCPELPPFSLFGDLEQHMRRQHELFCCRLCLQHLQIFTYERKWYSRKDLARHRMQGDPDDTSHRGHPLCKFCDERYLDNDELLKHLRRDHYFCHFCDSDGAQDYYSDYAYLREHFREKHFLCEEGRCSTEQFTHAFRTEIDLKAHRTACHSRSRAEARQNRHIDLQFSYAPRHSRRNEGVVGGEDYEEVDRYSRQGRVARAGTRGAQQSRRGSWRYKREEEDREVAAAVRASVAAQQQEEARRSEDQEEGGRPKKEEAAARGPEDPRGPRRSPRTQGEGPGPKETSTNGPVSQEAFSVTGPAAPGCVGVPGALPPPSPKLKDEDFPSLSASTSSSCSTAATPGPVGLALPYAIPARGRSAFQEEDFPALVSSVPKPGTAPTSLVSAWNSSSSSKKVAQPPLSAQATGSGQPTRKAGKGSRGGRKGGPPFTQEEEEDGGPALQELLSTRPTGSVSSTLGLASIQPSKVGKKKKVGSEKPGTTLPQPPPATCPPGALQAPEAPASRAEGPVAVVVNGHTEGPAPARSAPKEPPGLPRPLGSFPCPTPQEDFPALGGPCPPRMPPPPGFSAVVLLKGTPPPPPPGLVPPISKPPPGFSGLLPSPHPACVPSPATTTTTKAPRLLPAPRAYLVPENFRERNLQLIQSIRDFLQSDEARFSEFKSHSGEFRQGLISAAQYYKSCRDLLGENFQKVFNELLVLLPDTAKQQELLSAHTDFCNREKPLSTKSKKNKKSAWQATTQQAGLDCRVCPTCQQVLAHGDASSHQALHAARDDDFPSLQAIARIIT

B1: ZNF598 (co-transfected as GFP-ZNF598 and ZNF598-FLAG) (enzyme, UniProt Q86UK7 1-904)
chain: MAAAGGAEGRRAALEAAAAAAPERGGGSCVLCCGDLEATALGRCDHPVCYRCSTKMRVLCEQRYCAVCREELRQVVFGKKLPAFATIPIHQLQHEKKYDIYFADGKVYALYRQLLQHECPRCPELPPFSLFGDLEQHMRRQHELFCCRLCLQHLQIFTYERKWYSRKDLARHRMQGDPDDTSHRGHPLCKFCDERYLDNDELLKHLRRDHYFCHFCDSDGAQDYYSDYAYLREHFREKHFLCEEGRCSTEQFTHAFRTEIDLKAHRTACHSRSRAEARQNRHIDLQFSYAPRHSRRNEGVVGGEDYEEVDRYSRQGRVARAGTRGAQQSRRGSWRYKREEEDREVAAAVRASVAAQQQEEARRSEDQEEGGRPKKEEAAARGPEDPRGPRRSPRTQGEGPGPKETSTNGPVSQEAFSVTGPAAPGCVGVPGALPPPSPKLKDEDFPSLSASTSSSCSTAATPGPVGLALPYAIPARGRSAFQEEDFPALVSSVPKPGTAPTSLVSAWNSSSSSKKVAQPPLSAQATGSGQPTRKAGKGSRGGRKGGPPFTQEEEEDGGPALQELLSTRPTGSVSSTLGLASIQPSKVGKKKKVGSEKPGTTLPQPPPATCPPGALQAPEAPASRAEGPVAVVVNGHTEGPAPARSAPKEPPGLPRPLGSFPCPTPQEDFPALGGPCPPRMPPPPGFSAVVLLKGTPPPPPPGLVPPISKPPPGFSGLLPSPHPACVPSPATTTTTKAPRLLPAPRAYLVPENFRERNLQLIQSIRDFLQSDEARFSEFKSHSGEFRQGLISAAQYYKSCRDLLGENFQKVFNELLVLLPDTAKQQELLSAHTDFCNREKPLSTKSKKNKKSAWQATTQQAGLDCRVCPTCQQVLAHGDASSHQALHAARDDDFPSLQAIARIIT
[1]
  binding: binds

B2: CNOT4 (co-IP of Fig. S6b) (enzyme, UniProt O95628 1-575)
chain: MSRSPDAKEDPVECPLCMEPLEIDDINFFPCTCGYQICRFCWHRIRTDENGLCPACRKPYPEDPAVYKPLSQEELQRIKNEKKQKQNERKQKISENRKHLASVRVVQKNLVFVVGLSQRLADPEVLKRPEYFGKFGKIHKVVINNSTSYAGSQGPSASAYVTYIRSEDALRAIQCVNNVVVDGRTLKASLGTTKYCSYFLKNMQCPKPDCMYLHELGDEAASFTKEEMQAGKHQEYEQKLLQELYKLNPNFLQLSTGSVDKNKNKVTPLQRYDTPIDKPSDSLSIGNGDNSQQISNSDTPSPPPGLSKSNPVIPISSSNHSARSPFEGAVTESQSLFSDNFRHPNPIPSGLPPFPSSPQTSSDWPTAPEPQSLFTSETIPVSSSTDWQAAFGFGSSKQPEDDLGFDPFDVTRKALADLIEKELSVQDQPSLSPTSLQNSSSHTTTAKGPGSGFLHPAAATNANSLNSTFSVLPQRFPQFQQHRAVYNSFSFPGQAARYPWMAFPRNSIMHLNHTANPTSNSNFLDLNLPPQHNTGLGGIPVAGEEEVKVSTMPLSTSSHSLQQGQQPTSLHTTVA
[2]
  binding: binds
